For at least one entry, the source does not settle the construct or the ends of the probe. A weaker result is weaker than the reference pair of the same experiment. At least one verdict was read from the data and is not stated in words by the source.
Target: UHRF1 SRA (WT) (UniProt Q96T88)
Experiment: fluorescence polarization
Conditions: weaker than finger swap (~200 nM), Kd printed only in figure; FP: 25 mM HEPES pH 7.5, 100 mM NaCl, 0.05% NP-40, 10 nM FAM-DNA (temperature not stated); recombinant protein; residues 414-616; protein details: N-terminal His6-MBP (retained); label: 5' FAM on antisense strand (strand 2)

Sequences of proteins named here, by UniProt entry; tags and fusion partners are left off. Residues count along the entry.
UniProt Q96T88, 414-616: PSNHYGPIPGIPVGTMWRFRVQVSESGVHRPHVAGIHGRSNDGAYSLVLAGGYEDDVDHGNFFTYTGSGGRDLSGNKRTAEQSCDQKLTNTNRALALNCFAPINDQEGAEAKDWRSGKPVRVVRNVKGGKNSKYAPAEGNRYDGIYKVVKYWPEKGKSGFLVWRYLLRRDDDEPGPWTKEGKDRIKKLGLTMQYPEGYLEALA

## CCATGCGCTGAC (double strand) [UnDNA]
  binding result: binds more weakly

— publication PMC6816099
